Paper PMC11375261
Results are given in words; binding and its absence hold for the method and conditions named. Binding seen in cells or lysates may run through a third protein. Binding calls can cover weak binding; strength is not graded here. Tags and fused reporters may be left off the sequences shown.

Chains of the proteins cited; added tags and fusions are not shown. Lines headed by an entry give the natural chain unless they say otherwise; changes in a name come on top.
UniProt Q92581: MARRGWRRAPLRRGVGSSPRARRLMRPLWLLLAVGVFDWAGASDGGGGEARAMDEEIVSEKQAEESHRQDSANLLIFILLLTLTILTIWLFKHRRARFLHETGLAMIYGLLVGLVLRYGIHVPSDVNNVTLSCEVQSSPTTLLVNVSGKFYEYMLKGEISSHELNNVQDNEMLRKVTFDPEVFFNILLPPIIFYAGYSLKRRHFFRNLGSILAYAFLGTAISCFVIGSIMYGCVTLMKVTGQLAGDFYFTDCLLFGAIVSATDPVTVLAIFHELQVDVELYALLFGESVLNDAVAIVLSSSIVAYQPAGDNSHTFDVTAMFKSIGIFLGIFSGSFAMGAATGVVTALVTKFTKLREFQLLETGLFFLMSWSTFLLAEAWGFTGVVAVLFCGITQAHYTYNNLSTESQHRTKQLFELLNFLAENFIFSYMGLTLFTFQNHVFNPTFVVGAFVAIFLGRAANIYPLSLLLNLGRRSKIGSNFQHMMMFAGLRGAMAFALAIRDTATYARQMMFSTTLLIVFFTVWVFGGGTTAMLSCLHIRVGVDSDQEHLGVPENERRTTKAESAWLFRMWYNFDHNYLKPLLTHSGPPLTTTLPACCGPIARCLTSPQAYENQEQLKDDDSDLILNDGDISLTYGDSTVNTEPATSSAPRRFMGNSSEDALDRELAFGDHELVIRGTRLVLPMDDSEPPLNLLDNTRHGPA

B1: HA-tagged mouse NHE9 (protein, UniProt Q8BZ00 1-644)
chain: MAGQLRFTSGKDEDHFQHQGAVELLAFNFLLILTILTIWLFKNHRFRFLHETGGAMVYGLIMGLILRYATAPTDIDSGTVYNCGNLFFSPSTLLVNITDQVYEYKYQREINQHNISPHQGNAILEKMTFDPEIFFNVLLPPIIFHAGYSLKKRHFFQNLGSILTYAFLGTAISCVVIGLIMYGFVKAMVHAGQLKSGDFHFTDCLFFGSLMSATDPVTVLAIFHELHVDPDLYTLLFGESVLNDAVAIVLTYSISIYSPKENPNAFDTAAFFQSVGNFLGIFAGSFAMGSAYAVVTALLTKFTKLREFPMLETGLFFLLSWSAFLSAEAAGLTGIVAVLFCGVTQAHYTYNNLSSDSKLRTKQLFEFMNFLAENVIFCYMGLALFTFQNHIFNALFILGAFLAIFVARACNIYPLSFLLNLGRKQKIPWNFQHMMMFSGLRGAIAFALAIRNTESQPKQMMFTTTLLLVFFTVWVFGGGTTPMLTWLQIRVGVDLDESLKEEPSSQQEANKLDKNMTKTESAQLFRMWYGFDHKYLKPILTHSGPPLTTTLPAWCGPVSRLLTSPQAYGEQLKEDDVECIVNQDELAMNYQEQSPSPSSPTTKLALDQKSSGQTPGKENIYEGDLGLGGYDLKLEQTRGQPQMD
B2: GGA1 coexpressed with GGA3 (protein, UniProt Q8R0H9 1-635)
chain: MEPAMEPETLEARINRATNPLNKELNWASINSFCEQLNEDFEGPPLATRLLAHKIQSPQEWEAIQALTVLETCMKSCGKRFHDEVGKFRFLNELIKVVSPKYLGSRTSEKVKSKILELLYSWTVCLPEEVKIAEAYQMLKKQGIVKSDPKLPEDAIFPLPPPRPKNVIFEDEEKSKMLARLLKSSHPEDLRAANKLIKEMVQEDQKRMEKISKRVNAIEEVNNNVKLLTEMVMSHSQGAASSSSEDLMKELYQRCERMRPTLFRLASDTEDNDEALAEILQANDNLTQVINLYKQLVRGEEVNGDATASSIPGSTSALLDLSGLDLPPPGTTQPATPTRPGNQSSPEQLSASVSLLDDELMSLGLSDPTPPSGTSSDSVGWDNFQSSDGTESSVPPPAQAPSMDCRPPAQAPPPTSSGLDDLDLLGKTLMQQALPPEAQQVRWEKQQPAPRLTLRDLQSKSSSPSPGAASLLHTTSPEPPGPPPQATPTEFSLTSITVPLESIKPSSILPVTVYDQHGFRVLFHFARDPLPGRSDVLVVVVSMLSTAPQPIRNIVFQSAVPKVMKVRLQPPSGTELPAFNPIVHPSAITQVLLLANPQKEKVRLRYKLIFTMGDQTYNEMGDVDQFPPPETWGSL
B3: GFP-tagged mGGA1 VHS domain (aa 17–147) (domain or fragment, UniProt Q8R0H9 17-147)
chain: ATNPLNKELNWASINSFCEQLNEDFEGPPLATRLLAHKIQSPQEWEAIQALTVLETCMKSCGKRFHDEVGKFRFLNELIKVVSPKYLGSRTSEKVKSKILELLYSWTVCLPEEVKIAEAYQMLKKQGIVKS
B4: GFP-tagged mGGA1 GAT domain (aa 171–298) (domain or fragment, UniProt Q8R0H9 171-298)
chain: DEEKSKMLARLLKSSHPEDLRAANKLIKEMVQEDQKRMEKISKRVNAIEEVNNNVKLLTEMVMSHSQGAASSSSEDLMKELYQRCERMRPTLFRLASDTEDNDEALAEILQANDNLTQVINLYKQLVR
B5: GFP-tagged mGGA1 Hinge domain (aa 299–505) (domain or fragment, UniProt Q8R0H9 299-505)
chain: GEEVNGDATASSIPGSTSALLDLSGLDLPPPGTTQPATPTRPGNQSSPEQLSASVSLLDDELMSLGLSDPTPPSGTSSDSVGWDNFQSSDGTESSVPPPAQAPSMDCRPPAQAPPPTSSGLDDLDLLGKTLMQQALPPEAQQVRWEKQQPAPRLTLRDLQSKSSSPSPGAASLLHTTSPEPPGPPPQATPTEFSLTSITVPLESIKP
B6: GFP-tagged mGGA1 GAE domain (aa 506–627) (domain or fragment, UniProt Q8R0H9 506-627)
chain: SSILPVTVYDQHGFRVLFHFARDPLPGRSDVLVVVVSMLSTAPQPIRNIVFQSAVPKVMKVRLQPPSGTELPAFNPIVHPSAITQVLLLANPQKEKVRLRYKLIFTMGDQTYNEMGDVDQFP
B7: GFP-tagged mGGA1 del GAE (aa 1–505) (domain or fragment, UniProt Q8R0H9 1-505)
chain: MEPAMEPETLEARINRATNPLNKELNWASINSFCEQLNEDFEGPPLATRLLAHKIQSPQEWEAIQALTVLETCMKSCGKRFHDEVGKFRFLNELIKVVSPKYLGSRTSEKVKSKILELLYSWTVCLPEEVKIAEAYQMLKKQGIVKSDPKLPEDAIFPLPPPRPKNVIFEDEEKSKMLARLLKSSHPEDLRAANKLIKEMVQEDQKRMEKISKRVNAIEEVNNNVKLLTEMVMSHSQGAASSSSEDLMKELYQRCERMRPTLFRLASDTEDNDEALAEILQANDNLTQVINLYKQLVRGEEVNGDATASSIPGSTSALLDLSGLDLPPPGTTQPATPTRPGNQSSPEQLSASVSLLDDELMSLGLSDPTPPSGTSSDSVGWDNFQSSDGTESSVPPPAQAPSMDCRPPAQAPPPTSSGLDDLDLLGKTLMQQALPPEAQQVRWEKQQPAPRLTLRDLQSKSSSPSPGAASLLHTTSPEPPGPPPQATPTEFSLTSITVPLESIKP
B8: GFP-tagged mGGA1 del VHS (aa 171–635) (domain or fragment, UniProt Q8R0H9 171-635)
chain: DEEKSKMLARLLKSSHPEDLRAANKLIKEMVQEDQKRMEKISKRVNAIEEVNNNVKLLTEMVMSHSQGAASSSSEDLMKELYQRCERMRPTLFRLASDTEDNDEALAEILQANDNLTQVINLYKQLVRGEEVNGDATASSIPGSTSALLDLSGLDLPPPGTTQPATPTRPGNQSSPEQLSASVSLLDDELMSLGLSDPTPPSGTSSDSVGWDNFQSSDGTESSVPPPAQAPSMDCRPPAQAPPPTSSGLDDLDLLGKTLMQQALPPEAQQVRWEKQQPAPRLTLRDLQSKSSSPSPGAASLLHTTSPEPPGPPPQATPTEFSLTSITVPLESIKPSSILPVTVYDQHGFRVLFHFARDPLPGRSDVLVVVVSMLSTAPQPIRNIVFQSAVPKVMKVRLQPPSGTELPAFNPIVHPSAITQVLLLANPQKEKVRLRYKLIFTMGDQTYNEMGDVDQFPPPETWGSL
B9: GFP-tagged mGGA1 VHS + GAT (aa 1–298) (domain or fragment, UniProt Q8R0H9 1-298)
chain: MEPAMEPETLEARINRATNPLNKELNWASINSFCEQLNEDFEGPPLATRLLAHKIQSPQEWEAIQALTVLETCMKSCGKRFHDEVGKFRFLNELIKVVSPKYLGSRTSEKVKSKILELLYSWTVCLPEEVKIAEAYQMLKKQGIVKSDPKLPEDAIFPLPPPRPKNVIFEDEEKSKMLARLLKSSHPEDLRAANKLIKEMVQEDQKRMEKISKRVNAIEEVNNNVKLLTEMVMSHSQGAASSSSEDLMKELYQRCERMRPTLFRLASDTEDNDEALAEILQANDNLTQVINLYKQLVR
B10: GFP-tagged mGGA1 Hinge+GAE (aa 299–627) (domain or fragment, UniProt Q8R0H9 299-627)
chain: GEEVNGDATASSIPGSTSALLDLSGLDLPPPGTTQPATPTRPGNQSSPEQLSASVSLLDDELMSLGLSDPTPPSGTSSDSVGWDNFQSSDGTESSVPPPAQAPSMDCRPPAQAPPPTSSGLDDLDLLGKTLMQQALPPEAQQVRWEKQQPAPRLTLRDLQSKSSSPSPGAASLLHTTSPEPPGPPPQATPTEFSLTSITVPLESIKPSSILPVTVYDQHGFRVLFHFARDPLPGRSDVLVVVVSMLSTAPQPIRNIVFQSAVPKVMKVRLQPPSGTELPAFNPIVHPSAITQVLLLANPQKEKVRLRYKLIFTMGDQTYNEMGDVDQFP
B11: GFP-tagged mGGA1 GAT+Hinge (aa 171–505) (domain or fragment, UniProt Q8R0H9 171-505)
chain: DEEKSKMLARLLKSSHPEDLRAANKLIKEMVQEDQKRMEKISKRVNAIEEVNNNVKLLTEMVMSHSQGAASSSSEDLMKELYQRCERMRPTLFRLASDTEDNDEALAEILQANDNLTQVINLYKQLVRGEEVNGDATASSIPGSTSALLDLSGLDLPPPGTTQPATPTRPGNQSSPEQLSASVSLLDDELMSLGLSDPTPPSGTSSDSVGWDNFQSSDGTESSVPPPAQAPSMDCRPPAQAPPPTSSGLDDLDLLGKTLMQQALPPEAQQVRWEKQQPAPRLTLRDLQSKSSSPSPGAASLLHTTSPEPPGPPPQATPTEFSLTSITVPLESIKP
B12: GFP-tagged mGGA1 del Hinge (del aa 299–505) (protein, UniProt Q8R0H9)
chain: MEPAMEPETLEARINRATNPLNKELNWASINSFCEQLNEDFEGPPLATRLLAHKIQSPQEWEAIQALTVLETCMKSCGKRFHDEVGKFRFLNELIKVVSPKYLGSRTSEKVKSKILELLYSWTVCLPEEVKIAEAYQMLKKQGIVKSDPKLPEDAIFPLPPPRPKNVIFEDEEKSKMLARLLKSSHPEDLRAANKLIKEMVQEDQKRMEKISKRVNAIEEVNNNVKLLTEMVMSHSQGAASSSSEDLMKELYQRCERMRPTLFRLASDTEDNDEALAEILQANDNLTQVINLYKQLVRSSILPVTVYDQHGFRVLFHFARDPLPGRSDVLVVVVSMLSTAPQPIRNIVFQSAVPKVMKVRLQPPSGTELPAFNPIVHPSAITQVLLLANPQKEKVRLRYKLIFTMGDQTYNEMGDVDQFPPPETWGSL
B13: mGGA1 (mouse GGA1 from pCMV-mGGA1, untagged) (protein, UniProt Q8R0H9 1-635)
chain: B2 chain

The binders below were run against GGA3 (assay: co-IP; coexpression in HEK293T cells; GGA3 pulled down, partners found by blot (Fig. S2A)).
In the case of B1, the binding is reported as “binds”. B2 was tested, and the binding was “binds”.

These binders were tested against HA-tagged full-length human NHE6.2 (NHE6-HA) (human) (UniProt Q92581) (assay: co-IP; HEK293T cells cotransfected with NHE6-HA and a GGA1 construct; lysate precipitated with anti-HA, blotted with anti-GGA1 or anti-GFP).
B3 was tested, and the binding was “binds”. With B4 the binding was “binds”. With B5 the binding was “binds weakly”. For B6, the binding was “binds”. For B7, the binding was “binds”. B8 was tested, and the binding was “binds”. With B9 the binding was “binds”. With B10 the binding was “binds”. For B11, the binding was “binds”. In the case of B12, the binding is reported as “binds”. For B13, the binding was “binds”.
